The whole screen tested about 53,000 sequences, of which about 3,700 (7%) were called active.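 Rule for the calls: active = gene knockdowns whose robust z-score for IL-1 alpha signal is at least 2 or at most -2, so actives lie on both sides; inactive = the rest.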 Some of the results follow.

This assay in a line: Components of the Cytosolic LPS Sensing Pathway: Gene Identification via Genome-wide siRNA Screen.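 Note: robust z of the log signal after scaling to non-targeting control siRNA wells of the plate.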 The settings on record: RAW264.7 macrophages, IL-1a HTRF, actives lie on both sides, screened at 100 nM (by protocol), cells primed 5 h with Pam3CSK4 first. The procedure, abridged: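 RAW264.7 mouse macrophages reverse-transfected with single siRNAs (100 nM final) for 48h, primed with Pam3CSK4 for 5 hours, then transfected with LipidA for 24 hour. Supernatant IL-1a read by HTRF; values normalized to negative-control median, log-transformed robust z-scores.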
A general note: In TR-FRET formats the signal depends on donor and acceptor labels being close together.
On to GCCUCAGUUUGAAAUUGUUTT against Tbrg1, for which the z-score was inactive: -0.695. With CGUGUUCAAAAGAGUUUUCTT against Sos1, the z-score is inactive: 1.22. Regarding CCUUCGUCUGGAUUCUUAATT against Stard3, the z-score was inactive: -0.413. Turning to GGUGGAUCGCUUUAACCUGTT against Acd, the z-score was inactive: 0.895. In the case of GCUUUAGCUUUCCCUCGUUTT against Rsl1, the z-score is inactive: 1.47.

For the sequence GGAAUCAAAACAAUCGAAUTT against Nfia, the z-score was inactive: -0.485.

GGGUUAAAGCGAGUGGGUCTT against Rrnad1: the z-score was inactive: 0.0249. For GCCUUUCUUCAGUGUUCACTT against Gm128 the value was inactive: 0.498; for GUUCCAGUUUAUCCCUUCUTT against Klra1, inactive: 0.255; for CGGACUAUUGUGUUGUUAATT against Atoh1, inactive: 1.23. Regarding GCUUGAAGCGAUUAUUUGUTT against Slc25a14, the z-score is inactive: 0.704. For GGCUUCUUCUAUAACCCAATT against H1f1, the z-score is inactive: -0.852. Regarding GGUCACUGUUAGUUAUUAATT against Tcerg1l, the z-score is inactive: 0.954. With GCAAAAAGCAGACUAUGAATT against Vezf1, the z-score was inactive: -0.797. Regarding GCACUACCGUGAUGAGAUGTT against Dnaic1, the z-score is inactive: 0.00578. For GUCUCUUGGUAAAUGGCAATT against Hcrt, the z-score was inactive: 1.42. On to GCCAAAAAAGCUGUCAGUUTT against Nkx2-3, for which the z-score was inactive: -1.11. The same measure for GGAGACCUAUGAGGUAUUUTT against Ckmt1: inactive: -0.846; for GGUCACAGAAUCGGUUUCATT against Cuta: inactive: 1.02. Turning to GCUAUGCUACUAAGCAUUCTT against Bmp8b, the z-score was inactive: 0.631.

GGUUUACAAUGAGAUAGUUTT against Lipf: the z-score is inactive: -0.85. On to CGUGGGUACAAUCAGAUAATT against Mapk1ip1l, for which the z-score is inactive: 0.957. On to GGGAUAGUUACAUUGAAGUTT against Acot10, for which the z-score is inactive: -0.932.

In the case of CCUGUUUCACAGCUUCUAUTT against Cptp, the z-score was inactive: -1.6. Regarding CCUCUCCCUAAUUAUCUUUTT against Ripply3, the z-score is inactive: 1.19. Turning to “GAGUCUUACAUCAAGAAGATT against 9230106D20Rik”, the z-score is inactive: 0.538.

On to GGAGGUGAAAGGCAAAACUTT against Poldip2, for which the z-score is inactive: -0.122. In the case of GGAUGCUGUCCAACUGGAUTT against Plxnb2, the z-score is inactive: 0.17. Turning to CGAGCUUUGCACUUACUAUTT against Vtn, the z-score was inactive: -0.709.

On to CGGCAUGUCCUUCAUCGCUTT against Proser2, for which the z-score is active: -2.89. The same measure for CGGCCUCUCGAAUCGAUAUTT against Usp19: inactive: 1.82; for GGCUCAAUAAUGUUUUCAATT against Smpd3: active: 3.18. As to GGACUCAGGCCAAGAAAGATT against Rrs1, the z-score is inactive: 0.341. Turning to GGUGAAAUAUGCAGUAAAATT against Adam18, the z-score is inactive: -0.125. Take GCUAUUUGGUACCCUUUGATT against Olfr600: the z-score was inactive: -0.00896. The same measure for GGAAUGUGGGAAUAUUUACTT against Zfp59: inactive: 0.777; for GCCUUUACAACAGAACCUUTT against Appl2: inactive: 0.356; for GGAGAAGUAAUGACAAAUUTT against Foxp4: inactive: -1.47.

Turning to GCCAGAUCUUUAUAUCCCGTT against Gdi2, the z-score is inactive: -0.094. GCACUGGUGGACAGAUUCUTT against Col3a1: the z-score was inactive: 0.3. As to UGGCAAAAAGGUGAUAACUTT against Hbb-b2, the z-score was inactive: 0.86. CGGAACCAUAGGGAAUCAGTT against Cmc2: the z-score was active: 2.04. On to GGAUCACUUUAUUUGCUAGTT against Btg1, for which the z-score is inactive: 0.402.

Turning to GGUUUGUGCUCUUUAUUUGTT against Tcaf2, the z-score was inactive: 0.692.

For CCGUUCUUCAUAUGAGCUCTT against Olfr164, the z-score is inactive: 1.17.

In the case of GGAAGAAGAAGGAGCUAGATT against Slu7, the z-score was active: -2.2. Turning to GGAUUUGCCCAAAAUAAAATT against Nap1l5, the z-score was inactive: -0.669. As to CCGACAAAAGGUAUUCUGGTT against Aatf, the z-score was inactive: -0.0972. For the sequence GGACAGUGAUGAAGAAAAUTT against Srek1ip1, the z-score is inactive: -1.36.

Turning to CCUUUAAAGUAAGCAUGUGTT against Slc27a4, the z-score was inactive: 0.112. Turning to GGUAACUGAGAAAACCAGATT against Adam29, the z-score was inactive: -0.105. For GGAAGGAUAUUGGUUACCATT against Zmynd11 the value was active: -2.28; for CCGGAGAUUUGCUCUUAGUTT against Pcdhb3, inactive: -0.668. GGUGUCAGCGAAAAGCAGUTT against Ring1: the z-score was active: -2.2. For the sequence CGGCGAGUUCACAUUUCUGTT against Tmed1, the z-score is inactive: -0.278. The same measure for GGUAUGACCCAGAAGAAGGTT against Pip5k1c: inactive: -0.664; for CCAGUUAAGGCCAUUGUAATT against Jdp2: inactive: -0.774; for GCCGUUCCUAUGUCUAUGCTT against Serpina1b: inactive: 0.0725. As to GGUUAUAGCAAAGCUGAAATT against Ctu1, the z-score was inactive: -0.623.

Regarding GGGAUAAAGAGCAAAGAAUTT against Trdv2-2, the z-score was inactive: -0.466. Take GGAGCUGACCUAUCUCAAGTT against Krt25: the z-score is inactive: 0.322. As for CCCUCAUGGUACCUUGGCATT against Slc7a4, the z-score is inactive: -1.14. Consider GGUUCAAACAGAGACUCCATT against Slx4ip, for which the z-score was inactive: -1.89. On to “GCUAUCUCUCUUUUCAACATT against 4732465J04Rik”, for which the z-score is inactive: -1.47.

Take GCUAUGAGUUUGGAAAAAGTT against Rsph1: the z-score is inactive: -0.85. As for GCAUGUUAAGGAGACUCAGTT against Golph3, the z-score is inactive: 0.748. For GCAGUAAGCUUUUGCUAAATT against Zfp334, the z-score is inactive: 1.26.

As to GGUCUUGACCACACGAUGUTT against Tmem82, the z-score is inactive: 0.617. Consider GGCAAAAGAUUACAACAGATT against H1f7, for which the z-score is inactive: -1.81.

In the case of GGAGACCUUAAAAGAACAUTT against Ccdc134, the z-score is inactive: 0.775. GACAUUUGUAUGCAGUCAUTT against Vmn1r193: the z-score is active: -2.65. As for GGACAAAUGGGUAUUAUCUTT against Phxr4, the z-score was inactive: -1.01. As to GCCACUUACCCUUUCAGGCTT against Nfe2, the z-score is inactive: 0.772. As for CCGACUUUGCCAGGAUUUCTT against Fbxl7, the z-score was inactive: 0.924. With GCAGGUUAGACCAUGGCUATT against Diras2, the z-score is inactive: -0.667. The same measure for GGUUUCAAGAAAGAUAUGATT against Cntnap5b: inactive: -0.891; for GGUUCUCUAACAGAACUUUTT against Zc3h6: inactive: 0.768. Turning to GGAACCUUACUCAUGUCCCTT against Tlr6, the z-score is inactive: -0.773. On to GGACGAAGACACCAAAGUGTT against Camk2a, for which the z-score was inactive: -1.31. With GGAUCUGAAACAAAAACACTT against Slc8a3, the z-score was inactive: -1.3. GGCGACUCCAUCUAAACAATT against Slitrk5: the z-score was inactive: -0.709.

On to CCAAAUCGCUUCACAUAAUTT against Atp6v1g2, for which the z-score was inactive: -1.1. Turning to GGCCCUUCAAGAAUCUCUGTT against Rnf212, the z-score is inactive: -0.468.

For the sequence GCUUGUGCCGGAUAAAGGUTT against Gng3, the z-score is inactive: -0.748. Take CCCAAUGAUCCUAACCAUUTT against Zfp459: the z-score was inactive: -1.08. On to CCAUUCCGGUUACUUUCGATT against Hspb1, for which the z-score is inactive: 1.37. As for GGACACAAAGGAAUCUCUUTT against Olfr374, the z-score is inactive: -0.141. For GUACCUCUUCUCUAUCACUTT against Pla2g2e the value was inactive: 1.77.

Regarding CCUUGCUUAUUAGUCAAGUTT against Tti1, the z-score is inactive: -0.123. Consider GGAAGAUUUGUUCUAUACUTT against Epgn, for which the z-score is inactive: 0.593. As to GCAUGGAAAAAGGCUUUGATT against Olfr91, the z-score was inactive: -0.0717.

Consider GGUUUUCAUGGUUAUCUGATT against Nrgn, for which the z-score is inactive: -0.427.

Consider GGUGGAUAACGGCAAUAUUTT against Rfesd, for which the z-score is inactive: -1.08. For the sequence GGCAGAAUUGGCACAGAAATT against Zrsr2, the z-score is inactive: 0.201. For the sequence CGAAAAGAAGUGUUUCCUGTT against Lamb2, the z-score is inactive: 2. With CGUGGUUGAACUUUGUCCGTT against C1qtnf12, the z-score was inactive: -0.569.

Regarding CCGUCUAUACAUCUUUCCATT against Dab2, the z-score is inactive: 0.00714.

Consider CAAGAUAACCAGGUUAAUCTT against Adam6b, for which the z-score was inactive: 0.297. As for GGAGAAAUGAAAAAACAGUTT against Tmed4, the z-score was inactive: 1.05. As for CGAGAUAGACCGAAAACUGTT against Rad54l, the z-score was inactive: 0.304. GCACUGUAACAGCGAGUUATT against Tdgf1: the z-score was inactive: -0.218.

As for GCUAAUCAACAUCUACUUGTT against Nmt2, the z-score was inactive: 1.14. The same measure for GGUUACCAGUAUGUCUUAGTT against Cryba2: inactive: -0.117; for GUACAAAGCCUUUAAAGAUTT against Ang3: inactive: -0.725; for GGAAACCGUUCUCAUUAAATT against Mrpl30: inactive: 0.599. As to GCUGUAAGCUACCGUCUGUTT against Panx2, the z-score was inactive: 1.54. As for GUGAUGAGAGGCCUUUCACTT against Vmn1r-ps8, the z-score was inactive: -0.668.

The values above are taken from PubChem BioAssay AID1508600 (Functional Genomics Laboratory (NCATS/FGL), 2020).
